The values that follow come from the supplement of paper PMC11732987, “Enantioselective OTUD7B fragment discovery through chemoproteomics screening and high-throughput optimisation” (Communications Chemistry, 2025).

Protein sequences, listed by entry. Tags and fused reporters are not part of them. Lines headed by an entry give the natural chain unless they say otherwise; changes in a name come on top. Residues count along the entry.
UniProt P78527, 3336-3357: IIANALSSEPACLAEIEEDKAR
UniProt P78527, whole entry, looked up: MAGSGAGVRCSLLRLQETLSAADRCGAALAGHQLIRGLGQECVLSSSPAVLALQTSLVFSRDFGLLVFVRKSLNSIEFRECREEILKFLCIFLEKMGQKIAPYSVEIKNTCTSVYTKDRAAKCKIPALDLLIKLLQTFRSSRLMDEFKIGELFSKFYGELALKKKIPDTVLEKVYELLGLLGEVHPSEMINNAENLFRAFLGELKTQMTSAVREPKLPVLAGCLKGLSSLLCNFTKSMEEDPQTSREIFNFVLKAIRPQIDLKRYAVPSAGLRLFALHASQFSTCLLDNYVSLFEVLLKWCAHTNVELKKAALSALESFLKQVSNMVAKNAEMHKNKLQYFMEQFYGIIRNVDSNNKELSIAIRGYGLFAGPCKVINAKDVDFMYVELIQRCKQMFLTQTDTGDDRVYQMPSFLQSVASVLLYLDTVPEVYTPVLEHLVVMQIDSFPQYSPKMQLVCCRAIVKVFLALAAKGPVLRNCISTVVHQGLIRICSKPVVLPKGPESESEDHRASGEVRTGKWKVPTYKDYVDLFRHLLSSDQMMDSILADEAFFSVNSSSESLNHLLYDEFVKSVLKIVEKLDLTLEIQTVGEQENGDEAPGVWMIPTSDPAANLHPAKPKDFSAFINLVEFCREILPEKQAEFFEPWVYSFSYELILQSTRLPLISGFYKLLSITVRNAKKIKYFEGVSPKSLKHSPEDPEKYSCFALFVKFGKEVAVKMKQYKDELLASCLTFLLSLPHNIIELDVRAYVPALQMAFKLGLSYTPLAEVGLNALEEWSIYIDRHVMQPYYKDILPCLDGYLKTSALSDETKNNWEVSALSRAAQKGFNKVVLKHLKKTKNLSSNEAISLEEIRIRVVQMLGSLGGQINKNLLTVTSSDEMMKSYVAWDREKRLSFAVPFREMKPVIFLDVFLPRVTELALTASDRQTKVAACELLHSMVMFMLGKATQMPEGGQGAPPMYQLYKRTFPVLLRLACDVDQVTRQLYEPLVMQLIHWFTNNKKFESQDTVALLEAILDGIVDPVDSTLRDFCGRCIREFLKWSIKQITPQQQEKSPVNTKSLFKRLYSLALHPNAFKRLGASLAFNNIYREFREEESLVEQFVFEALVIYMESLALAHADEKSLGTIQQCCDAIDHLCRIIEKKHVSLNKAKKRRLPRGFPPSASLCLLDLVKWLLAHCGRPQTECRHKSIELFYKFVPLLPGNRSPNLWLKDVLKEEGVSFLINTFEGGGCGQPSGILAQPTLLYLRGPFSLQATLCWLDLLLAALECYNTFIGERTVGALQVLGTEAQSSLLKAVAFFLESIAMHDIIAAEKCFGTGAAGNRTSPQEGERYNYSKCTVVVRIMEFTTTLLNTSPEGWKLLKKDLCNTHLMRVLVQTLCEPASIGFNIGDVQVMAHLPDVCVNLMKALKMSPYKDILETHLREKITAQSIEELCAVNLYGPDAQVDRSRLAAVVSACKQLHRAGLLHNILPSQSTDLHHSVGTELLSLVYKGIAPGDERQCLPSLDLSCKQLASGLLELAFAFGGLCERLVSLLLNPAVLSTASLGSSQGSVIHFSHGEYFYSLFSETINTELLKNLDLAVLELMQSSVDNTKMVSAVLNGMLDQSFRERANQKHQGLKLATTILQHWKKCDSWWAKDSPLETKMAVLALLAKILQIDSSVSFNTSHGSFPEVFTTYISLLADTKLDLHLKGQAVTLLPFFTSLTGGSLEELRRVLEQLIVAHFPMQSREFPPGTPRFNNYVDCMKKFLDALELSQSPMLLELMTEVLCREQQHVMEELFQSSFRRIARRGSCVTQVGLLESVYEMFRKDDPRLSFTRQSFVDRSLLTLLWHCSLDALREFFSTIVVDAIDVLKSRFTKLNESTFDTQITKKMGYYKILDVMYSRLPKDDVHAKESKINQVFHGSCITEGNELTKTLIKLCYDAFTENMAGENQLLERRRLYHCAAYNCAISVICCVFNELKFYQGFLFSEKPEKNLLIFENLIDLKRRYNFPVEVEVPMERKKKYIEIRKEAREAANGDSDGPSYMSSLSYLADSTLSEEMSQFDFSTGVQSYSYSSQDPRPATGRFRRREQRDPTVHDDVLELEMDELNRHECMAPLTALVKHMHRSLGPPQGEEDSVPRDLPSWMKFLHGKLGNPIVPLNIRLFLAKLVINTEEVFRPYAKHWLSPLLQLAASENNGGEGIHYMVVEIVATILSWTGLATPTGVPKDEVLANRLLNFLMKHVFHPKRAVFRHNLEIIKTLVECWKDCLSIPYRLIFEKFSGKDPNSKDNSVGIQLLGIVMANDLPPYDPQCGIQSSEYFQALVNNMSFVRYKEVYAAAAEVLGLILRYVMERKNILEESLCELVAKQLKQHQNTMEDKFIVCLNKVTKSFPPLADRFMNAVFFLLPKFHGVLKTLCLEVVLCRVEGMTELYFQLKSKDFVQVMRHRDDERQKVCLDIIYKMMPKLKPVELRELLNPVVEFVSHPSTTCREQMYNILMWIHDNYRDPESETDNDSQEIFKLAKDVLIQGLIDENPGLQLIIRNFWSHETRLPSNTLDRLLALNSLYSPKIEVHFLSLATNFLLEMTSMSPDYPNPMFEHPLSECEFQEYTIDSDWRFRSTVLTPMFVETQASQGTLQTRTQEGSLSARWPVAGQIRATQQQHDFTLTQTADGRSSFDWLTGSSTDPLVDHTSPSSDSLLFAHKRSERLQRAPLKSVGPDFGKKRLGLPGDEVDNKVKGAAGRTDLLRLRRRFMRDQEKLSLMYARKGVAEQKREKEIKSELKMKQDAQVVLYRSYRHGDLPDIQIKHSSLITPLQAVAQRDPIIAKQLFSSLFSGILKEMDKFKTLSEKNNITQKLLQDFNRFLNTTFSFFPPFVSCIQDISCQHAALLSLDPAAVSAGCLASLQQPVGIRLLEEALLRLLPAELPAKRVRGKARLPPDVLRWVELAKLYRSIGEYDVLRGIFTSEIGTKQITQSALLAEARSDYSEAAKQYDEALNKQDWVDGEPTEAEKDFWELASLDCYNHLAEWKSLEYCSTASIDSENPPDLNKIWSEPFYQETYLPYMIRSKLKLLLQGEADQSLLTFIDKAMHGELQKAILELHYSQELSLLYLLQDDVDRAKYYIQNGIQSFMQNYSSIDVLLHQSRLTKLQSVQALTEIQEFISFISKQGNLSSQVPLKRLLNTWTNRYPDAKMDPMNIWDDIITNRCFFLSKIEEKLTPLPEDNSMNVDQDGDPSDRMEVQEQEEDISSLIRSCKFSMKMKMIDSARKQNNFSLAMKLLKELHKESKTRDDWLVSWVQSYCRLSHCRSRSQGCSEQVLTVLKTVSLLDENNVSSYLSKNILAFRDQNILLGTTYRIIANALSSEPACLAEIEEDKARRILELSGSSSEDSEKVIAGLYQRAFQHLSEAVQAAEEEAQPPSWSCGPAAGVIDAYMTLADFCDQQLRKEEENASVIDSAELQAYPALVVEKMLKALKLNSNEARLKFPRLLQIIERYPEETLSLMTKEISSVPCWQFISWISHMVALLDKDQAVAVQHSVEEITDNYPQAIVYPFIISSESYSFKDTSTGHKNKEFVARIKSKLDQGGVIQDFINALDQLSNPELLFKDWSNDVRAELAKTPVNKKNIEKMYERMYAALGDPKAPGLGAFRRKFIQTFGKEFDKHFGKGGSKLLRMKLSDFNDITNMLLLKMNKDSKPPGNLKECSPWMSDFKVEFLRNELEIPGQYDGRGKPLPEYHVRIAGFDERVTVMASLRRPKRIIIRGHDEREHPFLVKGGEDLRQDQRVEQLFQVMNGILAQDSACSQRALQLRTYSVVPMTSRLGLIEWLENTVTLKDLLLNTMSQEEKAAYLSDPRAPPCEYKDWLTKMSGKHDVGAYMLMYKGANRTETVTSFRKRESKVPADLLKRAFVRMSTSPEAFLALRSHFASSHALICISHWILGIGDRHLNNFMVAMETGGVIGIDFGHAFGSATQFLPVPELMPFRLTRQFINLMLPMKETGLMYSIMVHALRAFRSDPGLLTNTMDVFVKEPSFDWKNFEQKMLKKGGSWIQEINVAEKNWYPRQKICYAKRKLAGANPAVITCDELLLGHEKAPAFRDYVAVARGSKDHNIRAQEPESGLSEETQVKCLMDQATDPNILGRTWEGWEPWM
UniProt Q9NW08: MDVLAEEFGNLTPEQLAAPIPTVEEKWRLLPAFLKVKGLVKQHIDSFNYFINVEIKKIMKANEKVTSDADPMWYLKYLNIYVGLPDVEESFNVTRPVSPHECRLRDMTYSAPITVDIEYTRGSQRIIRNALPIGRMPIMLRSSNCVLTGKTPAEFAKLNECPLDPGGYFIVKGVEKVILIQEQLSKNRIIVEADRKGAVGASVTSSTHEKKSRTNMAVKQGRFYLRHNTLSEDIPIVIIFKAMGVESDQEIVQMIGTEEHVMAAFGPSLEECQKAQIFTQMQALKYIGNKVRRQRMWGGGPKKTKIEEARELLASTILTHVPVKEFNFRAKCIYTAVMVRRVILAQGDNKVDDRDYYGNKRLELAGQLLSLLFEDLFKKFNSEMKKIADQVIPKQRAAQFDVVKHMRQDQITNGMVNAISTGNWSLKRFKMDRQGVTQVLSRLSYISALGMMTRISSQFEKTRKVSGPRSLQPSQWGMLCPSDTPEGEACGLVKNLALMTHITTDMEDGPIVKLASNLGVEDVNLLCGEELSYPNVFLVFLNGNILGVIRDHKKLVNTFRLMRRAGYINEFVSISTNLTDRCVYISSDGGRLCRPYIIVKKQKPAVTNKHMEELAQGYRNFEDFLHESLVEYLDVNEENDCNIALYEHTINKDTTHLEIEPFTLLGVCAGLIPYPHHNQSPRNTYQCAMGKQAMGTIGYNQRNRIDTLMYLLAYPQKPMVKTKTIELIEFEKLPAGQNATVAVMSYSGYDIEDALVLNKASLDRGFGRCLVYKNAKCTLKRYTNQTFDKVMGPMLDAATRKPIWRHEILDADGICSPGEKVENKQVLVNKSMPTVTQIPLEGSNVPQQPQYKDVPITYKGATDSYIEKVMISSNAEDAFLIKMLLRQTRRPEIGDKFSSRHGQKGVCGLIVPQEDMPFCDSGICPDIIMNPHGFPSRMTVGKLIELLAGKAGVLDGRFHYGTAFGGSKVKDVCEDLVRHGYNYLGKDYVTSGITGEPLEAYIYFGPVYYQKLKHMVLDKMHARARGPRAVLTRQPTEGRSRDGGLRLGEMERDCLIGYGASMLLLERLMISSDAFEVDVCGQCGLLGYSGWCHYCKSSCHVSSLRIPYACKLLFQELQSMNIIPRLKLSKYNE
UniProt Q5H9R7: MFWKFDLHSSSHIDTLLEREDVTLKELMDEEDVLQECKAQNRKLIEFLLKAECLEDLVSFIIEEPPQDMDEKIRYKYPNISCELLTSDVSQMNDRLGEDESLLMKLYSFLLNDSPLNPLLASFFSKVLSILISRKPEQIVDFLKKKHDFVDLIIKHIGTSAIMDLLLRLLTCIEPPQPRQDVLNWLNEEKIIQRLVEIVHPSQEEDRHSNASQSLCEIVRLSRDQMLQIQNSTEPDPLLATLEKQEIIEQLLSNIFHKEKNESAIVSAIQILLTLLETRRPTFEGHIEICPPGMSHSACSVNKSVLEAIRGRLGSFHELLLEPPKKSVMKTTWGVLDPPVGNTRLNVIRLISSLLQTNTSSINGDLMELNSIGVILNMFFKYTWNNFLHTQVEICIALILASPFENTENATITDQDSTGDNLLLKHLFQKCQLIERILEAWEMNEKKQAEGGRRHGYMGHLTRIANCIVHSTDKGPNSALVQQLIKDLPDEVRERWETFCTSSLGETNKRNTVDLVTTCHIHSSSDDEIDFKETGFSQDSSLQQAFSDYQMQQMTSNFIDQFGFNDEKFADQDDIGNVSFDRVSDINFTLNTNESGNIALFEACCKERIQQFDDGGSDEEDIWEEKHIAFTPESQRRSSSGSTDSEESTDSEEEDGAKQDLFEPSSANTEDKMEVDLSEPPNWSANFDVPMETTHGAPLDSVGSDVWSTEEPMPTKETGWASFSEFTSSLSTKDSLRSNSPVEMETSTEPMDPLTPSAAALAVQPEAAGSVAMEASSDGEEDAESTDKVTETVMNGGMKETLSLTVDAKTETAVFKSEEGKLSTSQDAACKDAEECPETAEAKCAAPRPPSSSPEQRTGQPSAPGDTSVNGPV
UniProt A5A3E0, 916-938: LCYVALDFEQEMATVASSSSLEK
UniProt P60510: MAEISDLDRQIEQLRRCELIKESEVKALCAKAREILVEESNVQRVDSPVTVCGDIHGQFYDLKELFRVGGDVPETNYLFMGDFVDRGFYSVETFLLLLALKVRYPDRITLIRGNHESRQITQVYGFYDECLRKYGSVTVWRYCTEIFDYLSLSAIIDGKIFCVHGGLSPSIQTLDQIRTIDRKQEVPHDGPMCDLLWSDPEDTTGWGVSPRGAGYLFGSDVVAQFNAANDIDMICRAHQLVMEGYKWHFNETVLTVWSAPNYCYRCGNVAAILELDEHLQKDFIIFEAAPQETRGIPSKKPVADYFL

This is one part of the list. The data scatter; read single values as rough.

Compound in assay [1]: ClCC(=O)N[C@@H]1CCCc2ccccc12
Kind of assay: log2 mean competition ratio of IA-DTB cysteine labelling (DMSO/compound) (log2 ratio); higher = stronger cysteine engagement by compound. The following applies: treatment time: 4 h, cell line lysate: HEK293T. How it is done: (§1)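 IA-DTB competitive cysteine chemoproteomics in HEK293T RIPA lysate. Lysates were treated with compound 29 or 30 at 50 or 200 µM for 4 h, then IA-DTB (500 µM, 1 h), trypsin-digested, NeutrAvidin-enriched and analysed by diaPASEF. Competition ratio = intensity DMSO / intensity compound (n=4 treated, n=64 DMSO); binding: mean log2 CR ≥ 1 and p ≤ 0.05 plus QC filters. Target is the cysteine site.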

Compound in assay [2]: ClCC(=O)N[C@H]1CCCc2ccccc12
Described as above. As to conditions: treatment time: 4 h, cell line lysate: HEK293T. How it is done: as §1

With PRAME C188 (UniProt P78395), the “log2 mean competition ratio” value in assay [1] (200 µM) is -0.154; in assay [2] (50 µM) it was -0.051; in assay [2] (200 µM) it was -0.0918.

PPP4R1 C566 (UniProt Q8TF05): the “log2 mean competition ratio” value in assay [2] (50 µM) is -0.171; in assay [2] (200 µM) it was 0.225.

With PPIP5K2 C1094, the “log2 mean competition ratio” value is -0.0155 in assay [1] (50 µM) and 0.195 in assay [2] (200 µM).

PPP2R5E C106 (UniProt Q16537): the “log2 mean competition ratio” value was -0.197 in assay [2] (50 µM) and -0.263 in assay [2] (200 µM).

Regarding PRKDC C4106 (UniProt P78527), the “log2 mean competition ratio” value in assay [2] (50 µM) was determined as 0.417; in assay [2] (200 µM), 0.208.

Consider PRIM2 C384 (UniProt P49643), for which the “log2 mean competition ratio” value in assay [1] (50 µM) is 0.123; in assay [2] (50 µM) it was -0.891; in assay [2] (200 µM) it was 0.486.

Turning to POLR3B C145 (UniProt Q9NW08), the “log2 mean competition ratio” value is 0.206 in assay [2] (50 µM) and 0.101 in assay [2] (200 µM).

Consider PPFIBP1 C788 (UniProt Q86W92), for which the “log2 mean competition ratio” value in assay [2] (50 µM) worked out at 0.378; in assay [2] (200 µM), 0.196.

For PRKDC C2342 (UniProt P78527), the entries for the “log2 mean competition ratio” value in assay [2] (50 µM) and in assay [2] (200 µM) were -0.291 and -0.112, respectively.

Turning to POMT2 C21 (UniProt Q9UKY4), the “log2 mean competition ratio” value in assay [2] (50 µM) was determined as 0.0256; in assay [2] (200 µM), 0.0553.

On to POLR2A C13, for which the “log2 mean competition ratio” value in assay [2] (50 µM) amounted to 0.199; in assay [2] (200 µM) it was 0.494.

For the target PPP1R3D C26 (UniProt O95685), the “log2 mean competition ratio” value in assay [1] (50 µM) is 0.114; in assay [1] (200 µM), 0.16; in assay [2] (50 µM), 0.0956; in assay [2] (200 µM) it was -0.002.

On to PRKDC C3347 (UniProt P78527), for which the “log2 mean competition ratio” value in assay [2] (50 µM) is 0.169; in assay [2] (200 µM), -0.19.

For PRKD2 C615, the “log2 mean competition ratio” value was 0.455 in assay [1] (200 µM), 0.0525 in assay [2] (50 µM) and -0.0859 in assay [2] (200 µM).

On to PPP1R37 C124 (UniProt O75864), for which the “log2 mean competition ratio” value turned out to be 0.0194 in assay [2] (50 µM) and 0.153 in assay [2] (200 µM).

Take POLR2M C115: the “log2 mean competition ratio” value is 0.764 in assay [2] (50 µM) and -0.0157 in assay [2] (200 µM).

For PPIF C203 (UniProt P30405), the “log2 mean competition ratio” value in assay [1] (50 µM) is -0.527; in assay [1] (200 µM), 0.125; in assay [2] (50 µM), -0.263; in assay [2] (200 µM) it was 0.0509.

As for PRMT9 C290 (UniProt Q6P2P2), the “log2 mean competition ratio” value is -0.017 in assay [2] (50 µM) and 0.193 in assay [2] (200 µM).

Turning to PPP2R5E C121 (UniProt Q16537), the “log2 mean competition ratio” value was -0.0949 in assay [2] (50 µM) and 0.0533 in assay [2] (200 µM).

Take PRPF4 C342 (UniProt O43172): the “log2 mean competition ratio” value in assay [1] (50 µM) is 0.176; in assay [1] (200 µM), -0.0624; in assay [2] (50 µM), -0.0106; in assay [2] (200 µM), -0.0641.

As for POLR3E C616 (UniProt Q9NVU0), the “log2 mean competition ratio” value in assay [1] (50 µM) is 0.486; in assay [1] (200 µM), 0.349; in assay [2] (50 µM) it was -0.089; in assay [2] (200 µM) it was 0.284.

Turning to PRPF19 C114 (UniProt Q9UMS4), the “log2 mean competition ratio” value in assay [2] (50 µM) was -0.312; in assay [2] (200 µM) it was 0.136.

Regarding PPAN C180 (UniProt Q9NQ55), the results for the “log2 mean competition ratio” value in assay [2] (50 µM) and in assay [2] (200 µM) were -0.054 and -0.246, respectively.

As to POLR2B C1137 (UniProt P30876), the “log2 mean competition ratio” value in assay [2] (50 µM) was -0.101; in assay [2] (200 µM) it was 0.0966.

In the case of PORCN C375 (UniProt Q9H237), the “log2 mean competition ratio” value in assay [2] (50 µM) was found to be 0.532; in assay [2] (200 µM) it was 0.072.

On to PPP5C C11 (UniProt P53041), for which the “log2 mean competition ratio” value was -0.401 in assay [2] (50 µM) and -0.00142 in assay [2] (200 µM).

For the target PRKDC C1742 (UniProt P78527), the “log2 mean competition ratio” value in assay [2] (50 µM) was -0.217; in assay [2] (200 µM) it was -0.0446.

As for POT1 C329 (UniProt Q9NUX5), the entries for the “log2 mean competition ratio” value in assay [2] (50 µM) and in assay [2] (200 µM) were 0.508 and 0.26, respectively.

As to PRPF8 C1228 (UniProt Q6P2Q9), the entries for the “log2 mean competition ratio” value in assay [2] (50 µM) and in assay [2] (200 µM) were 0.402 and -0.0337, respectively.

On to PREB C128 (UniProt Q9HCU5), for which the “log2 mean competition ratio” value in assay [2] (50 µM) is -0.0639; in assay [2] (200 µM) it was -0.166.

PRKCH C501 (UniProt P24723): the “log2 mean competition ratio” value in assay [2] (50 µM) is 0.112; in assay [2] (200 µM) it was 0.241.

For PRPF3 C651 (UniProt O43395), the “log2 mean competition ratio” value in assay [2] (50 µM) turned out to be 0.045; in assay [2] (200 µM) it was 0.25.

For the target PPM1E C4 (UniProt Q8WY54), the figures for the “log2 mean competition ratio” value in assay [2] (50 µM) and in assay [2] (200 µM) were 0.277 and 0.108, respectively.

As for POLR2G C38 (UniProt P62487), the “log2 mean competition ratio” value in assay [2] (50 µM) is -0.305; in assay [2] (200 µM), -0.0718.

Consider PRMT1 C272 (UniProt Q99873), for which the “log2 mean competition ratio” value was 0.383 in assay [2] (50 µM) and -0.392 in assay [2] (200 µM).

For PRR12 C417 (UniProt Q9ULL5), the results for the “log2 mean competition ratio” value in assay [2] (50 µM) and in assay [2] (200 µM) were 0.185 and -0.223, respectively.

Consider PRIM2 C111 (UniProt P49643), for which the “log2 mean competition ratio” value in assay [2] (50 µM) is -0.0104; in assay [2] (200 µM) it was -0.149.

With PPP6R3 C172 (UniProt Q5H9R7), the “log2 mean competition ratio” value in assay [2] (50 µM) was -0.118; in assay [2] (200 µM) it was -0.291.

With PPP1R18 C276 (UniProt Q6NYC8), the “log2 mean competition ratio” value is -0.282 in assay [2] (50 µM) and -0.11 in assay [2] (200 µM).

With PRKRA C106 (UniProt O75569), the “log2 mean competition ratio” value in assay [2] (50 µM) is -0.45; in assay [2] (200 µM), -0.0549.

For POTEF C917 (UniProt A5A3E0), the figures for the “log2 mean competition ratio” value in assay [2] (50 µM) and in assay [2] (200 µM) were 0.715 and -0.0975, respectively.

Turning to PPP6R1 C437 (UniProt Q9UPN7), the “log2 mean competition ratio” value in assay [2] (50 µM) worked out at 0.0472; in assay [2] (200 µM), 0.00937.

PPP1R3D C184 (UniProt O95685): the results for the “log2 mean competition ratio” value in assay [2] (50 µM) and in assay [2] (200 µM) were -0.0603 and -0.201, respectively.

Turning to PPP2R5D C17 (UniProt Q14738), the results for the “log2 mean competition ratio” value in assay [2] (50 µM) and in assay [2] (200 µM) were 0.411 and -0.155, respectively.

As to PPP4C C266 (UniProt P60510), the “log2 mean competition ratio” value in assay [2] (50 µM) was -0.173; in assay [2] (200 µM), -0.35.

As to POLR3B C973 (UniProt Q9NW08), the “log2 mean competition ratio” value was -0.133 in assay [2] (50 µM) and 0.107 in assay [2] (200 µM).

On to PPARGC1B C316 (UniProt Q86YN6), for which the entries for the “log2 mean competition ratio” value in assay [2] (50 µM) and in assay [2] (200 µM) were 0.196 and 0.0294, respectively.

For POLR3B C815 (UniProt Q9NW08), the “log2 mean competition ratio” value in assay [2] (50 µM) is 0.013; in assay [2] (200 µM), -0.472.

PRDM2 C875 (UniProt Q13029): the entries for the “log2 mean competition ratio” value in assay [2] (50 µM) and in assay [2] (200 µM) were -0.0149 and -0.123, respectively.

Turning to PRCP C233 (UniProt P42785), the “log2 mean competition ratio” value in assay [2] (50 µM) is -0.00296; in assay [2] (200 µM), -0.48.

Take PRKCG C502 (UniProt P05129): the “log2 mean competition ratio” value in assay [2] (50 µM) was 0.183; in assay [2] (200 µM) it was 0.103.

Take POLR3A C934 (UniProt O14802): the “log2 mean competition ratio” value in assay [2] (50 µM) is -0.0628; in assay [2] (200 µM), 0.0868.

Consider PRPF3 C630 (UniProt O43395), for which the “log2 mean competition ratio” value in assay [2] (50 µM) is -0.0521; in assay [2] (200 µM), 0.0776.

On to PPP6R3 C467 (UniProt Q5H9R7), for which the “log2 mean competition ratio” value in assay [2] (50 µM) is 0.0677; in assay [2] (200 µM), -0.307.

In the case of POLRMT C94 (UniProt O00411), the “log2 mean competition ratio” value was -0.553 in assay [2] (50 µM) and -0.148 in assay [2] (200 µM).

PPP6R3 C830 (UniProt Q5H9R7): the “log2 mean competition ratio” value was 0.097 in assay [2] (50 µM) and 0.412 in assay [2] (200 µM).

Regarding POP1 C358 (UniProt Q99575), the “log2 mean competition ratio” value in assay [2] (50 µM) is -0.0492; in assay [2] (200 µM) it was 0.149.

Consider PRKDC C373 (UniProt P78527), for which the results for the “log2 mean competition ratio” value in assay [2] (50 µM) and in assay [2] (200 µM) were 0.277 and -0.144, respectively.

In the case of PPP2R1A C329 (UniProt P30153), the “log2 mean competition ratio” value in assay [2] (50 µM) is -0.113; in assay [2] (200 µM), -0.431.
